Values of other authors, collected in PMC10950897, “VCF1 is a p97/VCP cofactor promoting recognition of ubiquitylated p97-UFD1-NPL4 substrates” (Nature Communications, 2024).

The chains behind the UniProt entries cited, without tags or fusion partners. Where a name states a change or a piece, a line headed by the entry shows the natural chain unless it says otherwise.
UniProt Q969W3: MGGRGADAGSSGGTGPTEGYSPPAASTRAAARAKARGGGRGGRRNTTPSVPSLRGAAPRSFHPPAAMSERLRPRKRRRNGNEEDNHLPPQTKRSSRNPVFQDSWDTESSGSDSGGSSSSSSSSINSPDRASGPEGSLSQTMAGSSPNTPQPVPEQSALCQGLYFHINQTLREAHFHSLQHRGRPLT

System: HeLa cells
Conditions: cited from earlier work

## VCF1: human FAM104A isoform 1, 186 amino acids (UniProt Q969W3); recombinant Strep-HA-tagged
Endogenous VCF1
  expression level: ~ 6000 copies/HeLa cell
Less abundant
  abundance relative to UFD1-NPL4 and p47: approximately 100 fold
  abundance relative to p97: ~ 1000 fold
